# PubChem BioAssay AID1259254 | NCATS, 2017
# Assay: 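Gene knock-downs that lead to re-replication, shown by excess G2 DNA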 (primary screen)
# Cells: human HCT116 colorectal cancer cells
# Reagent: single siRNA against human genes
# Time to read-out: 3 days
# Measurement: 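Imaged Hoechst DNA stain sorts each cell into a cycle phase by DNA amount; per plate, G2 fraction set to 0% for non-targeting and 100% for GMNN siRNA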
# Scale: G2 robust z-score: higher = more G2 cells, more excess DNA replication
# Rule for the call: 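An siRNA counts as active if its G2 robust z-score lies at least 5 MADs above the screen median; here such calls match roughly 38% of GMNN control or more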
# Here is a random part of about 59,000 reagents tested. Over the whole deposit, about 1,550 (2.6%) are marked active. 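G2 share is only a proxy for re-replication; each gene was hit by three separate siRNAs, and active genes were retested.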 Entries without a mark were called inactive. The numbers tell different reagents against one gene apart. Further read-outs or replicates are left out here. Not given: the amount of reagent.
The first 2 records, ahead of the listing:
G2 robust z-score,Gene,siRNA no.
-0.517,BCO1 (beta-carotene oxygenase 1),1
-0.0334,BCO1 (beta-carotene oxygenase 1),2

Main list, from the first entry:
G2 robust z-score,Gene,siRNA no.
-0.517,BCO1 (beta-carotene oxygenase 1),1
-0.0334,BCO1 (beta-carotene oxygenase 1),2
-0.737,BCO1 (beta-carotene oxygenase 1),3
0.955,ZNF765 (zinc finger protein 765),1
-0.305,ZNF765 (zinc finger protein 765),2
-0.426,ZNF765 (zinc finger protein 765),3
-0.196,ZNF750 (zinc finger protein 750),1
-0.821,ZNF750 (zinc finger protein 750),2
-1.2,ZNF750 (zinc finger protein 750),3
-0.376,AMPD2 (adenosine monophosphate deaminase 2),1
2.38,AMPD2 (adenosine monophosphate deaminase 2),2
7.14 (active),AMPD2 (adenosine monophosphate deaminase 2),3
-0.395,CEACAM7 (CEA cell adhesion molecule 7),1
0.0266,CEACAM7 (CEA cell adhesion molecule 7),2
-0.381,CEACAM7 (CEA cell adhesion molecule 7),3
-1.26,ATP6V0D2 (ATPase H+ transporting V0 subunit d2),1
-0.749,ATP6V0D2 (ATPase H+ transporting V0 subunit d2),2
3.7,ATP6V0D2 (ATPase H+ transporting V0 subunit d2),3
-0.922,ANK1 (ankyrin 1),1
0.179,ANK1 (ankyrin 1),2
0.523,ANK1 (ankyrin 1),3
0.224,ARHGAP27 (Rho GTPase activating protein 27),1
1.7,ARHGAP27 (Rho GTPase activating protein 27),2
0.0793,ARHGAP27 (Rho GTPase activating protein 27),3
0.239,ARHGAP27 (Rho GTPase activating protein 27),4
-0.528,ARHGAP27 (Rho GTPase activating protein 27),5
0.0402,ARHGAP27 (Rho GTPase activating protein 27),6
4.92,AOC2 (amine oxidase copper containing 2),1
-0.934,AOC2 (amine oxidase copper containing 2),2
-1.4,AOC2 (amine oxidase copper containing 2),3
